Experimental data reported in patent US20090075889A1 (YEDA RESEARCH AND DEVELOPMENT, published 2009).

How the values were obtained:
Lamin = assay: yeast two-hybrid, β-galactosidase colour test
Cyclin D = assay: yeast two-hybrid, β-galactosidase colour test

Binder	binding (Lamin)	binding (Cyclin D)
IREN1-197 (protein) MSGSQNNDKRQFLLERLLDAVKQCQIRFGGRKEIASDSDSRVTCLCAQFEAVLQHGLKRSRGLALTAAAIKQAAGFASKTETEPVFWYYVKEVLNKHELQRFYSLRHIASDVGRGRAWLRCALNEHSLERYLHMLLADRCRLSTFYEDWSFVMDEERSSMLPTMAAGLNSILFAINIDNKDLNGQSKFAPTVSDLLK	no binding	
IREN198-541 (other, Two-hybrid prey construct; also called N-terminal deletion mutant of IREN; IRENΔN) ESTQNVTSLLKESTQGVSSLFREITASSAVSILIKPEQETDPLPVVSRNVSADAKCKKERKKKKKVTNIISFDDEEDEQNSGDVFKKTPGAGESSEDNSDRSSVNIMSAFESPFGPNSNGSQSSNSWKIDSLSLNGEFGYQKLDVKSIDDEDVDENEDDVYGNSSGRKHRGHSESPEKPLEGNTCLSQMHSWAPLKVLHNDSDILFPVSGVGSYSPADAPLGSLENGTGPEDHVLPDPGLRYSVEASSPGHGSPLSSLLPSASVPESMTISELRQATVAMMNRKDELEEENRSLRNLLDGEMEHSAALRQEVDTLKRKVAEQEERQGMKVQALASYLCYFVRRF	no binding	

Results, then the binder that gave them:

binding (Lamin)	binding (Cyclin D)	Binder
no binding	no binding	IREN (other, Tested in yeast two-hybrid as a hybrid protein; the fusion partner is not included in the chain; also called IκB REgulator; IREN protein) MSGSQNNDKRQFLLERLLDAVKQCQIRFGGRKEIASDSDSRVTCLCAQFEAVLQHGLKRSRGLALTAAAIKQAAGFASKTETEPVFWYYVKEVLNKHELQRFYSLRHIASDVGRGRAWLRCALNEHSLERYLHMLLADRCRLSTFYEDWSFVMDEERSSMLPTMAAGLNSILFAINIDNKDLNGQSKFAPTVSDLLKESTQNVTSLLKESTQGVSSLFREITASSAVSILIKPEQETDPLPVVSRNVSADAKCKKERKKKKKVTNIISFDDEEDEQNSGDVFKKTPGAGESSEDNSDRSSVNIMSAFESPFGPNSNGSQSSNSWKIDSLSLNGEFGYQKLDVKSIDDEDVDENEDDVYGNSSGRKHRGHSESPEKPLEGNTCLSQMHSWAPLKVLHNDSDILFPVSGVGSYSPADAPLGSLENGTGPEDHVLPDPGLRYSVEASSPGHGSPLSSLLPSASVPESMTISELRQATVAMMNRKDELEEENRSLRNLLDGEMEHSAALRQEVDTLKRKVAEQEERQGMKVQALASYLCYFVRRF
no binding		IREN198-388 (other, Two-hybrid prey construct) ESTQNVTSLLKESTQGVSSLFREITASSAVSILIKPEQETDPLPVVSRNVSADAKCKKERKKKKKVTNIISFDDEEDEQNSGDVFKKTPGAGESSEDNSDRSSVNIMSAFESPFGPNSNGSQSSNSWKIDSLSLNGEFGYQKLDVKSIDDEDVDENEDDVYGNSSGRKHRGHSESPEKPLEGNTCLSQMHS
no binding		IREN 10B (other, Splice isoform of IREN; Used as both bait and prey in yeast two-hybrid; also called clone 10B) MSGSQNNDKRQFLLERLLDAVKQCQIRFGGRKEIASDSDSRVTCLCAQFEAVLQHGLKRSRGLALTAAAIKQAAGFASKTETEPVFWYYVKEVLNKHELQRFYSLRHIASDVGRGRAWLRCALNEHSLERYLHMLLADRCRLSTFYEDWSFVMDEERSSMLPTMAAGLNSILFAINIDNKDLNGQSKFAPTVSDLLKESTQNVTSLLKESTQGVSSLFREITASSAVSILIKPEQETDPLPVVSRNVSADAKCKKERKKKKKVTNIISFDDEEDEQNSGDVFKKTPGAGESSEDNSDRSSVNIMSAFESPFGPNSNGSQSSNSWKIDSLSLNGEFGYQKLDVKSIDDEDVDENEDDVYGNSSGRKHRGHSESPEKPLEGNTCLSQMHSWAPLKVLHNDSDILFPVSGVGSYSPADAPLGSLENGTGPEDHVLPDPGLRYSVEASSPGHGSPLSSLLPSASVPESMTISELRQATVAMMNRKDELEEENRSLRNLLDGEMEHSAALRQEVDTLKRKVAEQEERQGMKVQALARENEVLKVQLKKYVGAVQMLKREGQTAEVPNLWSVDGEVTVAEQKPGEIAEELASSYERKLIEVAEMHGELIEFNERLHRALVAKEALVSQMRQELIDLRGPVPGDLSQTSEDQSLSDFEISNRALINVWIPSVFLRGKAANAFHVYQVYIRIKDDEWNIYRRYTEFRSLHHKLQNKYPQVRAYNFPPKKAIGNKDAKFVEERRKQLQNYLRSVMNKVIQMVPEFAASPKKETLIQLMPFFVDITPPGEPVNSRPKAASRFPKLSRGQPRETRNVEPQSGDL

No constants are given. Whether binding was seen depends on the method and setting.
